# Source: PubChem BioAssay AID652243 (Drosophila RNAi Screening Center, 2013)
# Purpose: 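Fly genes required for human androgen receptor driven transcription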 (primary screen)
# Cells: Drosophila S2R+ cells
# Reagent: long dsRNA against Drosophila genes
# Time to read-out: 72 h (48 h, then 24 h hormone)
# Treatment: synthetic androgen R1881 at 10 nM for 24 h
# Read-out: 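Per-well raw luminescence of the androgen-driven firefly reporter and of the Renilla control, two replicates each, without normalisation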
# Direction: firefly reporter light: higher = more light from androgen-responsive reporter; Renilla control light: higher = more constitutive control signal (cell number, transfection)
# Hit rule: 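Across duplicate plates, a knock-down whose log firefly/Renilla ratio shifted a set fold down or up from the GFP/LacZ control mean was a hit; the downward cut appears as both 1.5 and 3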
# Meaning of the calls: active = hit: reporter lowered or raised; inactive = no hit
# In all, the deposit lists about 24,000 reagents; this is a random part of those that have a named target and a result. Over the whole deposit, 246 (1%) are marked active. 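Plates not normalised; calls are printed but the firefly/Renilla ratio behind them is not deposited; fold cut for lowering reported inconsistently.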 Raw values vary from plate to plate and are shown uncorrected. The numbers tell different reagents against one gene apart. Names joined by + are all predicted targets of the reagent. Not given: the amount of reagent.
target,reagent no.,"firefly reporter light, replicate 1","firefly reporter light, replicate 2","Renilla control light, replicate 1","Renilla control light, replicate 2",call
RpL24-like,1,1.01e5,1.47e5,2.28e6,2.30e6,inactive
His4:CG33883 + His4:CG33889 + His4:CG33899 + 20 more,1,4.00e5,4.63e5,1.16e5,1.10e5,inactive
His4:CG33883 + His4:CG33889 + His4:CG33899 + 20 more,2,4.07e5,4.29e5,1.10e5,1.25e5,inactive
CG1116,1,68956,94225,1.03e6,1.12e6,inactive
CG2116,1,65258,34818,5.75e5,4.17e5,inactive
CG2116,2,7.29e5,9.27e5,5.38e5,7.95e5,inactive
mmd,1,3.98e5,2.94e5,2.56e6,2.13e6,inactive
mmd,2,4.94e5,3.76e5,3.12e6,2.53e6,inactive
mmd,3,6.58e5,8.20e5,1.80e6,1.77e6,inactive
CG32040,1,3.80e5,7.68e5,8.23e5,1.75e6,inactive
Snx27,1,3.26e5,3.80e5,2.34e6,3.00e6,inactive
Snx27,2,2.74e5,3.31e5,3.51e6,3.81e6,inactive
Snx27,3,2.28e5,3.13e5,1.71e6,1.81e6,inactive
Men-b,1,2.57e5,1.88e5,1.89e6,1.76e6,inactive
CG13102 + Rcd-1r,1,2.10e5,2.61e5,2.25e6,2.03e6,inactive
CG3348,1,2.22e5,1.96e5,1.95e6,2.38e6,inactive
ProtB,1,1.33e5,1.51e5,1.56e6,1.60e6,inactive
ProtB,2,2.78e5,3.03e5,7.53e5,7.80e5,inactive
CG4896,1,7.99e5,1.04e6,1.70e6,1.39e6,inactive
CG4896,2,7.50e5,7.15e5,8.63e5,9.26e5,inactive
CG1513,1,1.53e5,1.78e5,1.61e5,1.90e5,inactive
CG1513,2,2.01e5,2.83e5,3.65e6,4.51e6,active
CG1513,3,3.95e5,2.71e5,2.65e6,2.29e6,inactive
CG10934,1,1.57e6,1.24e6,2.69e6,1.77e6,inactive
MESR4,1,1.21e5,1.41e5,7.11e5,7.11e5,inactive
Vps50,1,5.08e5,3.00e5,7.38e5,4.29e5,inactive
Ir68b,1,3.31e5,1.95e5,1.25e6,1.18e6,inactive
CG30031 + deltaTry + gammaTry,1,2.60e5,1.84e5,1.91e6,1.23e6,inactive
Ir94d,1,1.05e6,9.05e5,2.15e6,1.91e6,inactive
CG44005 + CG44004,1,9.52e5,7.94e5,1.74e6,1.66e6,inactive
CG44005 + CG44004,2,6.61e5,6.83e5,1.67e6,1.64e6,inactive
CG12945,1,1.94e5,2.07e5,2.67e6,3.23e6,inactive
Dhc64C,1,6.87e5,7.86e5,1.35e6,1.40e6,inactive
Dhc64C,2,3.69e5,2.31e5,4.55e5,4.89e5,inactive
Uros2,1,1.49e5,1.63e5,1.78e6,1.76e6,inactive
CG1143,1,1.36e5,51951,1.06e6,5.33e5,inactive
CG15423,1,1.14e5,1.19e5,9.75e5,1.04e6,inactive
CG15423,2,5.67e5,7.00e5,1.65e6,1.65e6,inactive
Cyp4c3,1,62626,47724,5.90e5,2.58e5,inactive
Cyp4c3,2,3.78e5,2.49e5,5.30e5,4.48e5,inactive
